Assay results reported in patent US20220213201A1 (PHARMABCINE, published 2022).
No constants are given. Whether binding was seen depends on the method and setting. Some binding calls cover weakened binding; strength is not graded here.

Protein sequences, listed by entry. Tags and fused reporters are not part of them. Lines headed by an entry give the natural chain unless they say otherwise; changes in a name come on top. Residues count along the entry.
UniProt Q02763: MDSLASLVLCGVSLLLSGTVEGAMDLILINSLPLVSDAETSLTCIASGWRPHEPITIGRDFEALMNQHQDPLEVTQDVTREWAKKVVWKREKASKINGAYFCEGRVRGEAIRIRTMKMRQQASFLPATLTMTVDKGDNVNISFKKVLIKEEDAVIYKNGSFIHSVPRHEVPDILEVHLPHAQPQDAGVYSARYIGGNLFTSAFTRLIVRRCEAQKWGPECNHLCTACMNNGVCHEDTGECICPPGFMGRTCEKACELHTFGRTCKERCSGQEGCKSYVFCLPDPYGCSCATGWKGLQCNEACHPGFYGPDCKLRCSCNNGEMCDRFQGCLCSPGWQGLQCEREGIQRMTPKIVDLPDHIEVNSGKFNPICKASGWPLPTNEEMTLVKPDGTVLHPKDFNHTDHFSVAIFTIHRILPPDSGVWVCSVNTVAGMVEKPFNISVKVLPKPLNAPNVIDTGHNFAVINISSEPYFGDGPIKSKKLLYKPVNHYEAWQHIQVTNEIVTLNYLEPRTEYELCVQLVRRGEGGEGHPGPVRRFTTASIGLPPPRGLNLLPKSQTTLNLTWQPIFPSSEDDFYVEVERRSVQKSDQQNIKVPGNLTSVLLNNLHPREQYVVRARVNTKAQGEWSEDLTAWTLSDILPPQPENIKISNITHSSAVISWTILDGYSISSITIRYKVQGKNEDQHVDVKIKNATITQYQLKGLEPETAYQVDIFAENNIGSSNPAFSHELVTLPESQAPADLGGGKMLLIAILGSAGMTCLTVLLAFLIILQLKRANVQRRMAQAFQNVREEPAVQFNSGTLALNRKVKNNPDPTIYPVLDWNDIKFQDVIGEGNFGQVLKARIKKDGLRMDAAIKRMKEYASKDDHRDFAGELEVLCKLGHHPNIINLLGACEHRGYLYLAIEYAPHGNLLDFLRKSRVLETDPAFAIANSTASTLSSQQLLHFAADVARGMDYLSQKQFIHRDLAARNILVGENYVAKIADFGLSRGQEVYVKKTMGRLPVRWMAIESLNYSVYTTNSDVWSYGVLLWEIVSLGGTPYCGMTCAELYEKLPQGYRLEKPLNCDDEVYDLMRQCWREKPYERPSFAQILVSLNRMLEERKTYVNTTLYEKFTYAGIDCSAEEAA
human TIE2-his (Sino Biological, 10700-H08H): residues 23-745 of Q02763

Tests used:
[1] = target: human TIE2-his (Sino Biological, 10700-H08H) (human) (UniProt Q02763); assay: competitive ELISA on coated hTIE2, antibody at 2 ug/mL with ANG1 or ANG2 present
[2] = target: human TIE2-his (Sino Biological, 10700-H08H) (human) (UniProt Q02763); assay: ELISA, IgG on coated hTIE2-his
[3] = target: T1, human TIE2 overexpressed on CHO-K1 cells (human, UniProt Q02763 23-1124); assay: flow cytometry on hTIE2/CHO-K1 cells, 2 µg/mL clone, PE anti-human IgG-Fc secondary
T1 construct: whole, on cells; also called hTIE2/CHO-K1; hTIE2 CHO-K1
Description: In order to determine the binding to cell-expressing TIE2, the binding to the self-established human/mouse TIE2 overexpressing CHO-K1 cell lines (hTIE2/CHO-K1, mTIE2/CHO-K1) was measured using flow cytometry. Each cell line was maintained and cultured, hTIE2 CHO-K1 was washed with PBS, 5 mM EDTA was added thereto to obtain a cell suspension, and each cell was recovered through centrifugation. A cell suspension of 5×10⁶ cells/mL was prepared using FACS-dedicated buffer (PBS containing 2% FBS, 0.05% sodium azide), and 100 μL of the cell suspension was dispensed into each tube. 100 μL of 2 μg/mL clones was added to each test tube and allowed to stand at 4° C. for 30 minutes to induce cell binding. The cells were washed with 2 mL of FACS buffer, 100 μL of a secondary antibody dilution (1/500, PE-conjugated anti-human IgG-Fc polyclonal antibody fragment, *A80-248PE, Bethyl Laboratories Inc. US) was added thereto, and the resulting mixture was allowed to stand at 4° C. for 20 minutes to perform fluorescent labeling. The cells were washed with 2 mL of FACS buffer and then suspended in 200 μL of FACS buffer. […]

[4] = target: human TIE2-his (Sino Biological, 10700-H08H) (human) (UniProt Q02763); assay: competitive ELISA on coated hTIE2: 2F2 at 2 µg/mL with ANG1 varied up to 50 µg/mL as competitor, bound antibody detected with HRP anti-human [panel 2F2 vs. ANG1]
[5] = target: T1, human TIE2 overexpressed on CHO-K1 cells; assay: flow cytometry on hTIE2/CHO-K1, clones at 2 ug/mL, PE anti-human IgG-Fc detection
[6] = target: human TIE2-his (Sino Biological, 10700-H08H) (human) (UniProt Q02763); assay: competitive ELISA on coated hTIE2: 2F2 at 2 µg/mL with ANG2 varied up to 50 µg/mL as competitor, bound antibody detected with HRP anti-human [panel 2F2 vs. ANG2]
[7] = target: human TIE2-his (Sino Biological, 10700-H08H) (human) (UniProt Q02763); assay: ELISA, purified IgG on coated hTIE2-his (1 µg/mL), HRP anti-human detection
[8] = target: human TIE2-his (Sino Biological, 10700-H08H) (human) (UniProt Q02763); assay: Octet (BLI), antibody fixed on the biosensor

Measured: binding

B1: anti-TIE2 antibody 2F2 (IgG) (antibody, V domains shown)
VH: QVQLVESGGGLVQPGGSLRLSCAASGFTFSSYAMTWVRQAPGKGLEWVSRISGSGGSTNYADSVKGRFTISRDNSKNTLYLQMNSLRAEDTAVYYCARGGLHHGFDIWGQGTMVTVSS
VL: SYELTQPPSLSVAPGKTARITCDGDNIESKSVHWYQQKPGQAPVLVIYYDNDRPSGIPERFSGSNSGNTATLTISRVEAGDEADYYCQVWDTYTDQPVFGGGTKLTVLG
notes: also called 2F2 clone
binds: all assays above
